Data as given in PubChem BioAssay AID1259425 (University of Nebraska Medical Center, 2018)
Screen: 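Seek colon cancer weak points whose silencing resembles KSR1 loss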 (primary screen). Cell system: HCT116 human colon cancer cells. Knock-down reagent: siRNA pool against human genes, 50 nM siRNA. Measured: 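mRNA of six signature genes measured together by branched-DNA assay after 50 nM siRNA pool, blank removed, divided by geometric mean of two housekeeping genes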. Reading the numbers: BNIP3L mRNA: higher = more BNIP3L transcript after knockdown; NDRG1 mRNA: higher = more NDRG1 transcript after knockdown; BNIP3 mRNA: higher = more BNIP3 transcript after knockdown; ALDOC mRNA: higher = more ALDOC transcript after knockdown; ACSL5 mRNA: higher = more ACSL5 transcript after knockdown.
This is one part, drawn at random, of about 14,000 reagents tested. The record does not give: the time to read-out.

target gene | BNIP3L mRNA, set 1 | NDRG1 mRNA, set 1 | BNIP3 mRNA, set 1 | ALDOC mRNA, set 1 | ACSL5 mRNA, set 1
RASA2 | 0.0386 | 0.133 | 0.334 | 0.0425 | 0.13
EVX1 | 0.184 | 0.215 | 0.465 | 0.0223 | 0.245
RARS2 | 0.246 | 0.247 | 0.532 | 0.0363 | 0.694
SKIC3 | 0.191 | 0.0947 | 0.251 | 0.0287 | 0.0975
MAGI3 | 0.171 | 0.973 | 0.541 | 0.00474 | 0.592
COL6A2 | 0.11 | 0.0953 | 0.314 | 0.0277 | 0.165
TTBK1 | 0.246 | 0.204 | 0.322 | 0.0134 | 0.155
PAK2 | 0.0859 | 0.0456 | 0.208 | 0.00186 | 0.0323
CHD2 | 0.0493 | 0.12 | 0.233 | 0.0219 | 0.0964
BOK | 0.0669 | 0.084 | 0.352 | 0.0218 | 0.102
STMN1 | 0.0829 | 0.252 | 0.249 | 0.0184 | 0.186
PNP | 0.387 | 0.332 | 0.358 | 0.0505 | 0.302
MACROH2A1 | 0.0723 | 0.154 | 0.179 | 0.0148 | 0.123

Single entries from above:
Value of SKIC3 in “ACSL5 mRNA, set 1”: 0.0975
Result of COL6A2 in “ACSL5 mRNA, set 1”: 0.165

Additional records follow:
target gene | BNIP3L mRNA, set 1 | NDRG1 mRNA, set 1 | BNIP3 mRNA, set 1 | ALDOC mRNA, set 1 | ACSL5 mRNA, set 1
CHRAC1 | 0.131 | 0.148 | 0.287 | 0.0352 | 0.321
HAO2 | 0.18 | 0.193 | 0.302 | 0.0311 | 0.354
SERPINA5 | 0.148 | 0.0961 | 0.214 | 0.0639 | 0.198
PLEKHB2 | 0.108 | 0.207 | 0.289 | 0.0415 | 0.182
STX12 | 0.127 | 0.201 | 0.5 | 0.0179 | 0.208
INO80B | 0.238 | 1.19 | 0.363 | 0.0327 | 0.847
NOS1AP | 0.0933 | 0.284 | 0.4 | 0.0465 | 0.25
